# Source: PubChem BioAssay AID504594 (Broad Institute, 2011)
# Among all 2,000 compounds or so, fewer than 10 were called active.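 Rule for the calls: active = growth inhibition of at least 75% in every replicate, which also brings the mean inhibition to 75% or more; inconclusive = mean inhibition 75% or more but some replicate under 75%; inactive = the rest.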 Some of the results follow.
# Assay: reduced viability of yeast carrying PfHsp90 – S. cerevisiae, BacTiter-Glo luminescence, antimalarial PfHsp90 inhibitor project, primary screen (AID 504594);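 note: 0% = DMSO neutral control wells and 100% = 20 µM radicicol control wells; higher value means stronger growth inhibition because the sign is flipped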
# Details: S. cerevisiae expressing PfHsp90, BacTiter-Glo growth, 48 h; at 9.4 µM; stronger effect = higher value
row,Compound,growth inhibition
1,c1ccc(Nc2cccc3c(Nc4ccccc4)cccc23)cc1,inactive: 13.8%
2,CC(C)(C)NCC(O)COc1cccc2c1C[C@H](O)[C@H](O)C2 (stereo partly drawn),inactive: -3.05%
3,COCCc1ccc(OCC(O)CNC(C)C)cc1 (stereo not drawn),inactive: 12.3%
4,O=C1CN(O)C=C2N=c3ccccc3=C2N1c1ccc([N+](=O)[O-])cc1,inactive: 9.89%
5,CC(=O)NC(C(=O)NCC(N)=O)C(C)C (stereo not drawn),inactive: 4.26%
6,CC(C)Cc1ccc(C(C)C(=O)O)cc1 (stereo not drawn),inactive: -4.69%
7,CC(C)Oc1cccc(C(=O)N2CCCC2)c1,inactive: -0.92%
8,C[N+](C)(C)CCOP(=O)([O-])OC[C@H](O)CO,inactive: 1.98%
9,O=S(=O)(CCc1nc2ccccc2[nH]1)c1ccc(Cl)cc1,inactive: -3.99%
10,CN(C)C(=O)CCCCCCCCC(=O)N(C)C,inactive: 24%
11,CC(=O)NC(Cc1c[nH]c2ccccc12)C(=O)N/N=C/c1ccccc1 (stereo not drawn),inactive: 13.4%
12,Cc1nc(NCc2ccco2)c(C#N)c2c1COC(C)(C)C2,inactive: 15.9%
13,COc1ccc(-c2nc(NC(C)=O)sc2-c2ccc(OC)cc2)cc1,inactive: -7.91%
14,CCOC(=O)C(=Cc1ccccc1OC)C(=O)OCC,inactive: -1.25%
15,COc1cc(C2Nc3ccccc3NC3=C2C(=O)CC(c2ccc(OC)c(OC)c2)C3)ccc1O (stereo not drawn),inactive: -2.33%
16,Cc1ccccc1-c1coc2cc(O)ccc2c1=O,inactive: 4.28%
17,COc1ccc(C(=O)Nc2ccc(OC)c([N+](=O)[O-])c2)cc1Br,inactive: -4.48%
18,Fc1ccccc1CNCCC(Cc1ccccc1)c1ccc2c(c1)OCO2 (stereo not drawn),inactive: -1.57%
19,CCC1CCc2c(sc(NC(=O)c3cccnc3)c2C(N)=O)C1 (stereo not drawn),inactive: 1.79%
20,COc1cc(C(=O)CCN2CCC(c3ccccc3)C2)cc(OC)c1OC (stereo not drawn),inactive: 2.23%
21,Cn1c([N+](=O)[O-])cnc1COC(N)=O,inactive: 0.181%
22,Cc1ccc2nc3c(cc(C(=O)NCC4CCCO4)c(=N)n3CCCOC(C)C)c(=O)n2c1 (stereo not drawn),inactive: 4.47%
23,Cc1coc2c1c(C)cc1oc(=O)c(Cc3ccccc3)c(C)c12,inactive: 2.68%
24,Cc1cc(C)c2c(CCl)cc(=O)oc2c1,inactive: -4.42%
25,C=C1C2(C(=O)Nc3ccc(SC(F)F)cc3)CCC(C2)C1(C)C (stereo not drawn),inactive: -17.6%
26,CC[N+]1(CC)CC2=Cc3ccccc3CC2C1 (stereo not drawn),inactive: -5.09%
27,CCNC(=O)C(Cc1ccccc1)NC(=O)OCc1ccccc1 (stereo not drawn),inactive: -8.56%
28,O=C1OC(=O)C2C1[C@@H]1CC[C@H]2O1 (stereo partly drawn),inactive: -14%

# Another view of part of the listing above:
row | Compound | growth inhibition
9 | O=S(=O)(CCc1nc2ccccc2[nH]1)c1ccc(Cl)cc1 | inactive: -3.99%
10 | CN(C)C(=O)CCCCCCCCC(=O)N(C)C | inactive: 24%
